Laboratory results reported in the supplement of paper PMC10849652.
The list shows a part of the results.

Chains of the proteins cited; added tags and fusions are not shown. Lines headed by an entry give the natural chain unless they say otherwise; changes in a name come on top.
UniProt O43390: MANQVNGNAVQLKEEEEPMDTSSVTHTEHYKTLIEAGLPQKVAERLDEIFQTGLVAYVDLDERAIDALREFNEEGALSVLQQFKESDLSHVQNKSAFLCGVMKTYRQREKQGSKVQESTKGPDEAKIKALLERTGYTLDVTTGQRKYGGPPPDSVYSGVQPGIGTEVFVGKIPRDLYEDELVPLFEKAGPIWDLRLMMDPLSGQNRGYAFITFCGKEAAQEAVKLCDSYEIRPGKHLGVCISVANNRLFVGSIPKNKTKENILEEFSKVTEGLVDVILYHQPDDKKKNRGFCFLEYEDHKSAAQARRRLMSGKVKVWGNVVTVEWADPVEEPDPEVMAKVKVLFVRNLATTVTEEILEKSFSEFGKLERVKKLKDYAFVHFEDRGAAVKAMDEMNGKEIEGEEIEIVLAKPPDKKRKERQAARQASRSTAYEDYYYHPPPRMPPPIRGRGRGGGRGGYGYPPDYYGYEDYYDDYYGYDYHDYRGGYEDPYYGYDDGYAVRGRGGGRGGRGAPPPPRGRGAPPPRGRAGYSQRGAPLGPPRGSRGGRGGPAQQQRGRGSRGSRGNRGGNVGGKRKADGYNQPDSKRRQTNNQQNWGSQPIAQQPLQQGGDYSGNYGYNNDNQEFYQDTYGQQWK
UniProt P11142, whole entry, looked up: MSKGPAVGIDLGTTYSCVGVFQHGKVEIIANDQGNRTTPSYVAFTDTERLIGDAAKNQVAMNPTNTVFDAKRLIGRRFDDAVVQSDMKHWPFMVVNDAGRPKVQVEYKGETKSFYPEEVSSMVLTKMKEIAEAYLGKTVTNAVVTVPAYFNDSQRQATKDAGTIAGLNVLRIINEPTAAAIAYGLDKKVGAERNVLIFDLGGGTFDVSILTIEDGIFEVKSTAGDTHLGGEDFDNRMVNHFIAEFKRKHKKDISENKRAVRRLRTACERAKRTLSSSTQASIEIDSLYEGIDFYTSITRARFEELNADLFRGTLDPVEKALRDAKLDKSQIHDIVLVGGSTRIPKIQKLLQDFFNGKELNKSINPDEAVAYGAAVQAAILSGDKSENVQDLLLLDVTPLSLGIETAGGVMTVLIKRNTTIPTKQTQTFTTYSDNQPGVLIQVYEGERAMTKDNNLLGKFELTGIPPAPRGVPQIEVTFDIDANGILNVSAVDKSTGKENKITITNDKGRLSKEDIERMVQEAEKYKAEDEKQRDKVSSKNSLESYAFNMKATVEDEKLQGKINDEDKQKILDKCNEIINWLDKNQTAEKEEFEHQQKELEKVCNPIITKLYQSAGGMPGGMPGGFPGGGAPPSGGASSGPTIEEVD
UniProt Q99729: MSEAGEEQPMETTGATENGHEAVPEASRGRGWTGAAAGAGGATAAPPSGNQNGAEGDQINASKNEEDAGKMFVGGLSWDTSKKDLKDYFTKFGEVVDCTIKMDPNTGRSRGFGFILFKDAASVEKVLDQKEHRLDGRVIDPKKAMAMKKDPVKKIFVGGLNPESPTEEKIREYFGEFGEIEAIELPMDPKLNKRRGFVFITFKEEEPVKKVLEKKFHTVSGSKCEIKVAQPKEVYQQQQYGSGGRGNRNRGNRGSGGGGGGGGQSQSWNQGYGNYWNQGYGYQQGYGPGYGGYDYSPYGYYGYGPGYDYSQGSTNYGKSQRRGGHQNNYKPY
UniProt P48723: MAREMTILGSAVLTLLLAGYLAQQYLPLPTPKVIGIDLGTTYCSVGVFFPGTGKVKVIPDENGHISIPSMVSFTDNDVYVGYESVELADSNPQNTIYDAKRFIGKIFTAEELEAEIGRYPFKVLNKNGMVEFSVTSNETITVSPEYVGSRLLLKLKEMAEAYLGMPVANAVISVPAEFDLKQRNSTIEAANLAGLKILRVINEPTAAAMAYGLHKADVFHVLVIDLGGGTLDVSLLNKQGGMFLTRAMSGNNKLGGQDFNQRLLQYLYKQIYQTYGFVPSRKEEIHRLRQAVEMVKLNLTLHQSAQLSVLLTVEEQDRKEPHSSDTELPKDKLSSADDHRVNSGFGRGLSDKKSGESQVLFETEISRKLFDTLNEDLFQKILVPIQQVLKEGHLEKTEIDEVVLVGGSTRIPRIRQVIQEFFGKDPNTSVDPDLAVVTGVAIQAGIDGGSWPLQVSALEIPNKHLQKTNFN
UniProt Q9NZL4: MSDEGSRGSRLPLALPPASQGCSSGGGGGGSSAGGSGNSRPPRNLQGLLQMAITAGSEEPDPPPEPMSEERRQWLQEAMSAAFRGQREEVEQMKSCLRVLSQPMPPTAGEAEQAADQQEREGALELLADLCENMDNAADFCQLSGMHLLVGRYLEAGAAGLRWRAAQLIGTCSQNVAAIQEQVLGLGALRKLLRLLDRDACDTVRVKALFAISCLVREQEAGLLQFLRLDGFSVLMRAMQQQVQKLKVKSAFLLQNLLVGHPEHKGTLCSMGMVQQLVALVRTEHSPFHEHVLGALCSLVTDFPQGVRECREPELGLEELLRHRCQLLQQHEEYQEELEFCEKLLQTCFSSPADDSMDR
UniProt P13747, whole entry, looked up: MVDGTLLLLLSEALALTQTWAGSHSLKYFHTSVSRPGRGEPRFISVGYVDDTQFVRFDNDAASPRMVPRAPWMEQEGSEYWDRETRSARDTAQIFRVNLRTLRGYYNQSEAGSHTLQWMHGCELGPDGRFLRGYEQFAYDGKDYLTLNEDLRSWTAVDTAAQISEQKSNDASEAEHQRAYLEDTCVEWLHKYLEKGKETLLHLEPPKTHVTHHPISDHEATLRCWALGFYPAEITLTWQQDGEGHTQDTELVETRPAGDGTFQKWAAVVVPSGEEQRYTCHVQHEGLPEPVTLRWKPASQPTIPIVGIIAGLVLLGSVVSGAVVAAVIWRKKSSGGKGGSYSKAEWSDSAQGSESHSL
UniProt H0YH80: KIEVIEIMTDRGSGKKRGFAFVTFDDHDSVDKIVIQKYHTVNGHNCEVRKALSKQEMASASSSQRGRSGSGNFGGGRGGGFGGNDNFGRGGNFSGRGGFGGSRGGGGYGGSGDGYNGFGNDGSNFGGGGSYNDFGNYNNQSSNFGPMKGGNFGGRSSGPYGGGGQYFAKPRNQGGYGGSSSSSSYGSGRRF
UniProt P05362: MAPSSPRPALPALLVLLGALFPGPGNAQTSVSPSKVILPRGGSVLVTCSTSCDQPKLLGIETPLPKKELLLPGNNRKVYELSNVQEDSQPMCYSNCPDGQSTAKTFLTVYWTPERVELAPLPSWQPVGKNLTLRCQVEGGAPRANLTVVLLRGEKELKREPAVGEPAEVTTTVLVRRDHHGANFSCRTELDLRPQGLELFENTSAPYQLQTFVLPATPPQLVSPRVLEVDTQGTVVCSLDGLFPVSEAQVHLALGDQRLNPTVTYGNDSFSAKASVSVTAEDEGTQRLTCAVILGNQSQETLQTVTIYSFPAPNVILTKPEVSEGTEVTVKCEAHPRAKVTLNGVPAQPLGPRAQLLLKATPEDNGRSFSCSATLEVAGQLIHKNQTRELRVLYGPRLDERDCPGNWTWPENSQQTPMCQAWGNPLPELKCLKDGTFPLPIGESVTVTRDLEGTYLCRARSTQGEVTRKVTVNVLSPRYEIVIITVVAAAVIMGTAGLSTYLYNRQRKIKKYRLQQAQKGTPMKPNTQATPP
UniProt Q99714: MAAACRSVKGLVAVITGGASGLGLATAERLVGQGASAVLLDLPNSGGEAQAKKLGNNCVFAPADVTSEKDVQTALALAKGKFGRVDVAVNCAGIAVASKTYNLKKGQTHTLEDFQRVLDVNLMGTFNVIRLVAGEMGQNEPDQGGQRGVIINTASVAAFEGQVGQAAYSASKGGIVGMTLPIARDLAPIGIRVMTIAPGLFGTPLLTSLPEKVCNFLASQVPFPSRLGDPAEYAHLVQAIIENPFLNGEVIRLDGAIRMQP
UniProt Q86VS8: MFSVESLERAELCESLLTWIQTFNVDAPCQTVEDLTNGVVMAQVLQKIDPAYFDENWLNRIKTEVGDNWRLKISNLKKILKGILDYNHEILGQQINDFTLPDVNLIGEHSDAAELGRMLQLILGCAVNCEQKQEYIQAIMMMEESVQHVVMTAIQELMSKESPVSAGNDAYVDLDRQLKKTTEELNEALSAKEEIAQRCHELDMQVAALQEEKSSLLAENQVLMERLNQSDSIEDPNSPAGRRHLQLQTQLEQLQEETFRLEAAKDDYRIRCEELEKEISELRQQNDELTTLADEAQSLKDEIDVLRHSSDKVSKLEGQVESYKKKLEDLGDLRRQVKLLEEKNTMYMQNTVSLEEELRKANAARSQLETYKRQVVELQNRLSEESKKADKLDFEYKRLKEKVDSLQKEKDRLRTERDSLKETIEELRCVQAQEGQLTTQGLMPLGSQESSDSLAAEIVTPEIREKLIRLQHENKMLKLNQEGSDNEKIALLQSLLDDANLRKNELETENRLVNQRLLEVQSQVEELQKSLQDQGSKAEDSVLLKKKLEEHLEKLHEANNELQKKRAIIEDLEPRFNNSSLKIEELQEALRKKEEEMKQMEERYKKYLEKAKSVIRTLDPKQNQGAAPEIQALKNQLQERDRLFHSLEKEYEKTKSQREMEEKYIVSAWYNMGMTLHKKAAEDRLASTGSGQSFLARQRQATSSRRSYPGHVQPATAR
UniProt Q14527: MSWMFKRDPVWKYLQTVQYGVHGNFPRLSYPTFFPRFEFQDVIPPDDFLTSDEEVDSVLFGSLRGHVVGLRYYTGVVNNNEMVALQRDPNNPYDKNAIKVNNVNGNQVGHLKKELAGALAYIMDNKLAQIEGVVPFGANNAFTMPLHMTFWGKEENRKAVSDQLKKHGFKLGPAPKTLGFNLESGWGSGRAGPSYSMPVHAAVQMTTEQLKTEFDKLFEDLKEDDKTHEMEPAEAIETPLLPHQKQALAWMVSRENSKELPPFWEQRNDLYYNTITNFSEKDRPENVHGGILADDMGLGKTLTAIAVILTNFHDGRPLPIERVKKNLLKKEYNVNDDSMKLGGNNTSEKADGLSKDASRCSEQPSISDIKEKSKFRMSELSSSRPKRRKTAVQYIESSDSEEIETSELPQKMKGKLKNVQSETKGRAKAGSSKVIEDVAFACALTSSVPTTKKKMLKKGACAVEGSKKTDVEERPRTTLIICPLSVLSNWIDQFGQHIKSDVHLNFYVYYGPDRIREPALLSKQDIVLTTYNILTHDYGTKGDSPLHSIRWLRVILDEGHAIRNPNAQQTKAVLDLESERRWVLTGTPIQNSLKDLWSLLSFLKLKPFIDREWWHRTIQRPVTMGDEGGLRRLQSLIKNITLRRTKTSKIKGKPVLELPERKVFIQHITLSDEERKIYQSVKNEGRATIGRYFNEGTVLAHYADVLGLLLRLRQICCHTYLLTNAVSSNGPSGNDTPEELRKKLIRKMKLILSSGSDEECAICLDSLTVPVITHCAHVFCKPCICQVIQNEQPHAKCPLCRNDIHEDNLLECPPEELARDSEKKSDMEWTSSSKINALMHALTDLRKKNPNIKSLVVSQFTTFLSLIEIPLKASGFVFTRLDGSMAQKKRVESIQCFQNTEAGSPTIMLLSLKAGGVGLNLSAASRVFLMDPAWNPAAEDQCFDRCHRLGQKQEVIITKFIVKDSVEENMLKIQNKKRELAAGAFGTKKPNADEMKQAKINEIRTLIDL
UniProt Q03014: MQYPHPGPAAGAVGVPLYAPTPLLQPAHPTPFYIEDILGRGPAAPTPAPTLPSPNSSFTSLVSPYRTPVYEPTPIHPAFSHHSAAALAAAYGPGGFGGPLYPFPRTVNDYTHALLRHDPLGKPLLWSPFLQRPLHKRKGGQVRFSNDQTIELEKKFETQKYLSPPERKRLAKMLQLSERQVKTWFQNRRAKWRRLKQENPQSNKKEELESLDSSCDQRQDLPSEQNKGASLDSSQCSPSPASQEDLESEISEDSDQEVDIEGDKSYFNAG
UniProt Q9BW71: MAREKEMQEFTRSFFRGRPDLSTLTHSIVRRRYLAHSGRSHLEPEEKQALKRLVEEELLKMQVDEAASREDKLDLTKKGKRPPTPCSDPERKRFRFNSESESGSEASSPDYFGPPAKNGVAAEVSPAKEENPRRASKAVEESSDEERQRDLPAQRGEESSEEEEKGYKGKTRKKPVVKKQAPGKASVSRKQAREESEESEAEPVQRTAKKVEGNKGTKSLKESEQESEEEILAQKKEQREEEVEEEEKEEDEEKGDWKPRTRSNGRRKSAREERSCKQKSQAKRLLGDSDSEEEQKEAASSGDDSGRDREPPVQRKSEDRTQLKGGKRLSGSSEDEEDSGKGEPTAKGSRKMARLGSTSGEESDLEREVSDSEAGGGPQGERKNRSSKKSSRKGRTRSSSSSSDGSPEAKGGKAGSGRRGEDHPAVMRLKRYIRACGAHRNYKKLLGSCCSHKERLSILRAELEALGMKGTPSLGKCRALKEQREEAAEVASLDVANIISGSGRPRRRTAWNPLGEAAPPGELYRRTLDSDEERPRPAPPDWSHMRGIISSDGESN

Legend:
Experiment in all cases: log2 fold change, soluble protein after heating vs DMSO (PISA); higher = thermal stabilisation; K562 cells, 10 uM, 30 min; active = over 0.2 and 3.5 SD of the protein, either way, in both replicates (recomputed)
[1] = compound: CS(=O)(=O)c1ccc(-c2cnc(N)c(C(=O)Nc3ccccc3)n2)cc1
Method in brief: (§1)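 For each measurement, 10 μM compound was applied for 30 min to K562 cells at 2×10^6 cells/mL. Aliquots were heated for 3 min across 48°C-58°C, pooled, and extracted in PBS with 0.5% NP-40 at 4°C; the supernatant after 21,000xg for 90 min was soluble protein. This was quantified by TMTpro 16plex LC-MS/MS with channel sums equalised, and thermal stability was reported relative to control samples from duplicates, on a log2 fold-change scale.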

crizotinib = compound: C[C@@H](Oc1cc(-c2cnn(C3CCNCC3)c2)cnc1N)c1c(Cl)ccc(F)c1Cl [crizotinib]
Method in brief: as §1

[2] = compound: C[C@@H]1COCCN1C2=NC(=NC(=C2)C3(CC3)S(=O)(=O)C)C4=C5C=CNC5=CC=C4
Method in brief: as §1

[3] = compound: C[C@H](C1=CC=C(C=C1)C(=O)NC2=C3C=CNC3=NC=C2)N
Method in brief: as §1

duvelisib = compound: C[C@H](Nc1ncnc2nc[nH]c12)c1cc2cccc(Cl)c2c(=O)n1-c1ccccc1 [duvelisib]
Method in brief: as §1

gandotinib = compound: Cc1cc(Nc2cc(CN3CCOCC3)c3nc(C)c(Cc4ccc(Cl)cc4F)n3n2)n[nH]1 [gandotinib]
Method in brief: as §1

tozasertib = compound: Cc1cc(Nc2cc(N3CCN(C)CC3)nc(Sc3ccc(NC(=O)C4CC4)cc3)n2)n[nH]1 [tozasertib]
Method in brief: as §1

[4] = compound: Cc1cc(SCc2sc(-c3ccc(C(F)(F)F)cc3)nc2C)ccc1OCC(=O)O
Method in brief: as §1

doramapimod = compound: Cc1ccc(-n2nc(C(C)(C)C)cc2NC(=O)Nc2ccc(OCCN3CCOCC3)c3ccccc23)cc1 [doramapimod]
Method in brief: as §1

ispinesib = compound: Cc1ccc(C(=O)N(CCCN)[C@@H](c2nc3cc(Cl)ccc3c(=O)n2Cc2ccccc2)C(C)C)cc1 [ispinesib]
Method in brief: as §1

bafetinib = compound: Cc1ccc(NC(=O)c2ccc(CN3CC[C@H](N(C)C)C3)c(C(F)(F)F)c2)cc1Nc1nccc(-c2cncnc2)n1 [bafetinib]
Method in brief: as §1

[5] = compound: Cc1cccc(CC(=O)N2CCc3c2ccc(-c2cn(C)c4ncnc(N)c24)c3F)n1
Method in brief: as §1

dasatinib = compound: Cc1nc(Nc2ncc(C(=O)Nc3c(C)cccc3Cl)s2)cc(N2CCN(CCO)CC2)n1 [dasatinib]
Method in brief: as §1

[6] = compound: Cn1cc(-c2ccc3c(c2)CCN3C(=O)Cc2cccc(C(F)(F)F)c2)c2c(N)ncnc21
Method in brief: as §1

[7] = compound: Cn1cc(-c2ccc3nnc(C(F)(F)c4ccc5ncccc5c4)n3n2)cn1
Method in brief: as §1

tipifarnib = compound: Cn1cncc1[C@@](N)(c1ccc(Cl)cc1)c1ccc2c(c1)c(-c1cccc(Cl)c1)cc(=O)n2C [tipifarnib]
Method in brief: as §1

mubritinib = compound: FC(F)(F)c1ccc(/C=C/c2nc(COc3ccc(CCCCn4ccnn4)cc3)co2)cc1 [mubritinib]
Method in brief: as §1

nilotinib = compound: Cc1cn(-c2cc(NC(=O)c3ccc(C)c(Nc4nccc(-c5cccnc5)n4)c3)cc(C(F)(F)F)c2)cn1 [nilotinib]
Method in brief: as §1

[8] = compound: Cc1nc(Nc2n[nH]c3c2CN(C(=O)N[C@H](CN(C)C)c2ccccc2)C3(C)C)c2sccc2n1
Method in brief: as §1

[9] = compound: Cc1ncc(-c2ccnc(Nc3ccc(S(C)(=O)=O)cc3)n2)n1C(C)C
Method in brief: as §1

Measured: log2 fold change

HNRNPL (UniProt P14866)
inactive: [1] -0.147 | crizotinib -0.002 | [2] -0.018 | [3] 0.334 | duvelisib 0.036 | gandotinib 0.156 | tozasertib 0.098 | [4] -0.03 | doramapimod 0.019 | ispinesib -0.171 | bafetinib -0.022 | [5] -0.081 | dasatinib 0.158 | [6] -0.178 | [7] -0.017 | tipifarnib 0.189 | mubritinib -0.287

HMGN2 (UniProt P05204)
inactive: [1] -0.093 | crizotinib 0.051 | [2] -0.201 | [3] -0.019 | gandotinib -0.212 | [4] -0.058 | doramapimod -0.1 | ispinesib -0.048 | bafetinib -0.013 | [5] -0.189 | nilotinib -0.025 | [8] 0.022 | dasatinib 0.053 | [9] 0 | [6] -0.025 | [7] 0.04 | tipifarnib 0.079 | mubritinib 0.021

HNRNPR isoform 2 (UniProt O43390)
inactive: [1] -0.108 | crizotinib 0.014 | [2] -0.24 | [3] 0.172 | duvelisib -0.094 | gandotinib 0.102 | tozasertib 0.043 | [4] 0.07 | doramapimod 0.034 | ispinesib -0.197 | bafetinib 0.041 | [5] -0.037 | nilotinib -0.079 | [8] 0 | dasatinib 0.161 | [9] 0.001 | [6] -0.21 | [7] -0.073 | tipifarnib 0.097 | mubritinib -0.039

HSPA8 (UniProt P11142)
inactive: [1] 0.003 | crizotinib 0.039 | [2] -0.048 | [3] -0.009 | gandotinib 0.014 | [4] -0.003 | doramapimod -0.008 | ispinesib 0.028 | bafetinib 0.008 | [5] -0.008 | nilotinib 0.081 | [8] -0.001 | dasatinib 0.03 | [9] -0.003 | [6] -0.029 | [7] -0.003 | tipifarnib 0.037 | mubritinib -0.002

HNRNPAB isoform 3 (UniProt Q99729)
inactive: [1] -0.064 | crizotinib 0.018 | [2] -0.213 | [3] 0.227 | duvelisib -0.1 | gandotinib 0.17 | tozasertib 0.012 | [4] -0.038 | doramapimod 0.033 | ispinesib -0.069 | bafetinib 0.038 | [5] -0.034 | nilotinib 0.019 | [8] 0.174 | dasatinib 0.247 | [9] 0.163 | [6] -0.127 | [7] -0.064 | tipifarnib 0.06 | mubritinib -0.064

HSPA1A (UniProt P0DMV8)
inactive: [1] 0.002 | crizotinib 0.039 | [2] -0.105 | [3] 0.044 | duvelisib -0.037 | gandotinib -0.076 | tozasertib -0.017 | [4] -0.055 | doramapimod -0.003 | ispinesib 0.046 | bafetinib -0.001 | [5] -0.086 | nilotinib 0.09 | [8] -0.022 | dasatinib 0.074 | [9] 0.004 | [6] -0.018 | [7] -0.025 | tipifarnib 0.07 | mubritinib -0.007

HSPA13 (UniProt P48723)
inactive: [1] -0.003 | crizotinib -0.012 | [2] -0.043 | [3] -0.032 | duvelisib 0.006 | gandotinib -0.048 | tozasertib 0.033 | [4] 0.006 | doramapimod 0.042 | ispinesib -0.006 | bafetinib -0.03 | [5] 0.037 | nilotinib -0.017 | [8] 0.013 | dasatinib -0.025 | [9] -0.009 | [6] 0.043 | [7] -0.011 | tipifarnib -0.015 | mubritinib -0.034

HSPBP1 isoform 3 (UniProt Q9NZL4)
inactive: [1] 0.023 | crizotinib -0.003 | [2] 0.031 | [3] -0.018 | duvelisib 0.034 | gandotinib -0.143 | tozasertib 0.087 | [4] 0.033 | doramapimod -0.052 | ispinesib 0.06 | bafetinib -0.023 | [5] -0.009 | nilotinib -0.083 | [8] -0.025 | dasatinib -0.085 | [9] -0.017 | [6] -0.014 | [7] -0.032 | tipifarnib -0.075 | mubritinib 0.05

HLA-E (UniProt P13747)
inactive: [1] -0.027 | crizotinib -0.039 | [2] 0.022 | [3] 0.012 | duvelisib 0.011 | gandotinib 0.115 | tozasertib 0.115 | [4] -0.003 | doramapimod 0.13 | bafetinib -0.161 | [5] -0.02 | dasatinib 0.038 | [6] -0.059 | tipifarnib 0.041

HM13 (UniProt Q8TCT9)
inactive: [1] -0.01 | crizotinib -0.035 | [2] 0.115 | [3] -0.055 | gandotinib -0.143 | tozasertib 0.017 | doramapimod 0.002 | ispinesib 0.06 | bafetinib -0.022 | [5] -0.034 | nilotinib -0.029 | [8] -0.002 | [9] -0.005 | [6] 0.086 | [7] 0.054 | tipifarnib 0.008 | mubritinib -0.01

HNRNPA1 (UniProt H0YH80)
inactive: [1] -0.122 | crizotinib -0.034 | [2] -0.646 | [3] 0.43 | gandotinib 0.214 | tozasertib 0.094 | doramapimod 0.132 | ispinesib -0.019 | bafetinib 0.209 | [5] 0.017 | nilotinib -0.086 | [8] 0.137 | [9] 0.138 | [6] -0.239 | [7] -0.28 | mubritinib -0.264

ICAM1 (UniProt P05362)
inactive: [1] 0.052 | crizotinib 0.142 | [2] 0.026 | [3] -0.069 | gandotinib -0.134 | [4] -0.054 | doramapimod -0.012 | ispinesib 0.121 | bafetinib 0.031 | [5] -0.024 | nilotinib 0.055 | [8] 0.051 | dasatinib -0.01 | [9] -0.019 | [6] 0.048 | [7] -0.006 | tipifarnib 0.019 | mubritinib 0.046

HSD17B10 (UniProt Q99714)
inactive: [1] -0.043 | crizotinib 0.109 | [2] 0.059 | [3] -0.115 | duvelisib 0.05 | gandotinib 0.028 | tozasertib -0.037 | [4] 0.005 | doramapimod 0.015 | ispinesib 0.151 | bafetinib 0.158 | [5] 0.066 | nilotinib -0.014 | [8] -0.008 | dasatinib 0.042 | [9] -0.005 | [6] 0.089 | [7] 0 | tipifarnib -0.051 | mubritinib 0.104

Quoted from above (2 entries):
ICAM1 (UniProt P05362)
inactive: [1] 0.052 | crizotinib 0.142 | [2] 0.026 | [3] -0.069 | gandotinib -0.134 | [4] -0.054 | doramapimod -0.012 | ispinesib 0.121 | bafetinib 0.031 | [5] -0.024 | nilotinib 0.055 | [8] 0.051 | dasatinib -0.01 | [9] -0.019 | [6] 0.048 | [7] -0.006 | tipifarnib 0.019 | mubritinib 0.046

HSD17B10 (UniProt Q99714)
inactive: [1] -0.043 | crizotinib 0.109 | [2] 0.059 | [3] -0.115 | duvelisib 0.05 | gandotinib 0.028 | tozasertib -0.037 | [4] 0.005 | doramapimod 0.015 | ispinesib 0.151 | bafetinib 0.158 | [5] 0.066 | nilotinib -0.014 | [8] -0.008 | dasatinib 0.042 | [9] -0.005 | [6] 0.089 | [7] 0 | tipifarnib -0.051 | mubritinib 0.104

Carrying on.

HUWE1 (UniProt Q7Z6Z7)
inactive: [1] -0.002 | crizotinib -0.03 | [2] 0.003 | [3] -0.007 | duvelisib 0.005 | gandotinib -0.084 | tozasertib 0.041 | [4] 0.051 | doramapimod 0.007 | ispinesib 0.011 | bafetinib 0.006 | [5] 0.028 | nilotinib -0.024 | [8] 0.008 | dasatinib -0.036 | [9] -0.014 | [6] -0.002 | [7] -0.015 | tipifarnib -0.081 | mubritinib 0.059

HOOK3 (UniProt Q86VS8)
inactive: [1] -0.042 | crizotinib -0.123 | [2] -0.05 | [3] 0.036 | gandotinib -0.067 | [4] 0.033 | doramapimod 0.019 | ispinesib -0.199 | bafetinib -0.047 | [5] 0.029 | nilotinib -0.088 | [8] -0.078 | dasatinib -0.07 | [9] 0.009 | [6] 0.002 | [7] -0.027 | tipifarnib -0.001 | mubritinib -0.024

HLTF (UniProt Q14527)
inactive: [1] -0.034 | crizotinib 0.045 | [2] -0.143 | [3] 0.006 | gandotinib -0.078 | [4] 0.063 | doramapimod -0.003 | ispinesib 0.006 | bafetinib -0.003 | [5] 0.017 | nilotinib 0.099 | [8] -0.193 | dasatinib -0.035 | [9] 0.015 | [6] -0.035 | [7] -0.01 | tipifarnib 0.007 | mubritinib 0.051

HHEX (UniProt Q03014)
inactive: [1] -0.014 | crizotinib -0.027 | [2] -0.104 | [3] 0.49 | gandotinib -0.042 | [4] 0.021 | doramapimod 0.05 | ispinesib -0.128 | bafetinib -0.039 | [5] -0.024 | nilotinib -0.033 | [8] -0.056 | dasatinib 0.04 | [9] 0.008 | [6] 0.373 | [7] 0.044 | tipifarnib -0.012 | mubritinib 0.066

HIRIP3 (UniProt Q9BW71)
inactive: [1] -0.01 | crizotinib 0.056 | [2] 0.08 | [3] -0.068 | duvelisib -0.017 | gandotinib 0.007 | tozasertib 0.019 | [4] 0.02 | doramapimod -0.016 | ispinesib -0.003 | bafetinib -0.084 | [5] 0.013 | nilotinib 0.009 | [8] -0.065 | dasatinib -0.037 | [9] -0.015 | [6] -0.009 | [7] 0.012 | tipifarnib -0.024 | mubritinib 0.027
